Values from PubChem BioAssay AID504784 (Drosophila RNAi Screening Center, 2011)

Purpose: 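Fly genes whose silencing alters how much lipid cells keep in droplets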 (primary screen)
Cell system: Drosophila Kc167 embryonic cells
Knock-down reagent: long dsRNA against Drosophila genes, about 250 ng dsRNA per well
Timing: 4 days
Challenge: cells fed 400 µM oleic acid bound to BSA
Detection: 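Cells imaged and segmented; ratio of lipid droplet area to nuclear area, log-transformed, then normalised as a B-score over the screen; higher means more stored lipid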
Direction: droplet/nuclear area B-score: higher = more stored lipid (overstorage)
The screen tested about 17,000 reagents; this is an unselected part of those that have a named target and a result. 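Each column is one replicate's B-score; the combined score over replicates was not deposited, so single values may mislead.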 Further read-outs or replicates are left out here.

CG15247 (GeneID 31919) [DRSC17976]: droplet/nuclear area B-score, replicate 1 = 0.406
ND-30 (GeneID 38378) [DRSC08243]: droplet/nuclear area B-score, replicate 1 = -0.254
CG33284 (GeneID 2768989) [DRSC22905]: droplet/nuclear area B-score, replicate 1 = 0.0974
zip (GeneID 38001) [DRSC04725]: droplet/nuclear area B-score, replicate 1 = -0.39
zip (GeneID 38001) [DRSC22489]: droplet/nuclear area B-score, replicate 1 = -0.283
Gyc89Db (GeneID 42002) [DRSC15009]: droplet/nuclear area B-score, replicate 1 = -0.0225
Obp57e (GeneID 326110) [DRSC05891]: droplet/nuclear area B-score, replicate 1 = 0.0743
CG33232 (retired record) (GeneID 2769004) [DRSC08187]: droplet/nuclear area B-score, replicate 1 = 1.85
CG33232 (retired record) (GeneID 2769004) [DRSC08495]: droplet/nuclear area B-score, replicate 1 = -0.23
CG13678 (GeneID 38922) [DRSC10036]: droplet/nuclear area B-score, replicate 1 = -0.00466
spz3 (GeneID 34077) [DRSC02391]: droplet/nuclear area B-score, replicate 1 = -1.94
spz3 (GeneID 34077) [DRSC03008]: droplet/nuclear area B-score, replicate 1 = -0.559
Lmx1a (GeneID 39406) [DRSC09726]: droplet/nuclear area B-score, replicate 1 = 2.46
Lmx1a (GeneID 39406) [DRSC10275]: droplet/nuclear area B-score, replicate 1 = -1.18
CG13722 (GeneID 38555) [DRSC08331]: droplet/nuclear area B-score, replicate 1 = 0.674
CG13722 (GeneID 38555) [DRSC21616]: droplet/nuclear area B-score, replicate 1 = 0.276
CG13606 (GeneID 42873) [DRSC14609]: droplet/nuclear area B-score, replicate 1 = 1.17
SkpB (GeneID 36298) [DRSC07683]: droplet/nuclear area B-score, replicate 1 = 1.01
MCTS1 (GeneID 31536) [DRSC18393]: droplet/nuclear area B-score, replicate 1 = 1.94
CG15731 (GeneID 32194) [DRSC19698]: droplet/nuclear area B-score, replicate 1 = -1.96
CG15731 (GeneID 32194) [DRSC21820]: droplet/nuclear area B-score, replicate 1 = 0.256
CG9743 (GeneID 43593) [DRSC16552]: droplet/nuclear area B-score, replicate 1 = 1.72
CG31279 (GeneID 318657) [DRSC13158]: droplet/nuclear area B-score, replicate 1 = -1.09
CG14187 (GeneID 40199) [DRSC10186]: droplet/nuclear area B-score, replicate 1 = 1.44
CNPYb (GeneID 40084) [DRSC09845]: droplet/nuclear area B-score, replicate 1 = -0.396
CG12974 (GeneID 40350) [DRSC11684]: droplet/nuclear area B-score, replicate 1 = -0.129
CG33217 (GeneID 2768951) [DRSC22907]: droplet/nuclear area B-score, replicate 1 = 1.17
CG4101 (GeneID 39857) [DRSC10400]: droplet/nuclear area B-score, replicate 1 = -0.356
Pka-R1 (GeneID 40305) [DRSC11674]: droplet/nuclear area B-score, replicate 1 = -1.66
Pka-R1 (GeneID 40305) [DRSC11875]: droplet/nuclear area B-score, replicate 1 = -1.84
nAChRalpha6 (GeneID 34304) [DRSC01096]: droplet/nuclear area B-score, replicate 1 = -0.514
nAChRalpha6 (GeneID 34304) [DRSC02738]: droplet/nuclear area B-score, replicate 1 = 0.72
D19B (GeneID 38717) [DRSC11134]: droplet/nuclear area B-score, replicate 1 = -0.385
CG14104 (GeneID 50259) [DRSC10106]: droplet/nuclear area B-score, replicate 1 = -0.694
CG6974 (GeneID 41815) [DRSC16160]: droplet/nuclear area B-score, replicate 1 = -0.0211
CG42663 (GeneID 36403) [DRSC06158]: droplet/nuclear area B-score, replicate 1 = 0.536
CG42663 (GeneID 36403) [DRSC06404]: droplet/nuclear area B-score, replicate 1 = -1.2
Nsun5 (GeneID 7354421) [DRSC15835]: droplet/nuclear area B-score, replicate 1 = 1.32
SK (GeneID 31456) [DRSC17387]: droplet/nuclear area B-score, replicate 1 = -0.158
SK (GeneID 31456) [DRSC17751]: droplet/nuclear area B-score, replicate 1 = -0.263
SK (GeneID 31456) [DRSC17887]: droplet/nuclear area B-score, replicate 1 = -1.36
SK (GeneID 31456) [DRSC17888]: droplet/nuclear area B-score, replicate 1 = -0.553
SK (GeneID 31456) [DRSC18353]: droplet/nuclear area B-score, replicate 1 = -0.469
SK (GeneID 31456) [DRSC21840]: droplet/nuclear area B-score, replicate 1 = 2.95
CG10752 (GeneID 39467) [DRSC09799]: droplet/nuclear area B-score, replicate 1 = 0.0443
CG15408 (GeneID 33548) [DRSC00423]: droplet/nuclear area B-score, replicate 1 = 0.604
CG14075 (GeneID 40071) [DRSC10080]: droplet/nuclear area B-score, replicate 1 = -1.37
Paf-AHalpha (GeneID 32529) [DRSC20267]: droplet/nuclear area B-score, replicate 1 = 0.901
bma (GeneID 5740442) [DRSC09896]: droplet/nuclear area B-score, replicate 1 = -0.341
bma (GeneID 5740442) [DRSC10164]: droplet/nuclear area B-score, replicate 1 = 0.881
Pi3K92E (GeneID 42446) [DRSC16788]: droplet/nuclear area B-score, replicate 1 = -0.364
